Data as given in PubChem BioAssay AID1259298 (Sanger Institute, 2017)

Purpose: 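Kinome knock-downs lethal on their own or synergising with anchor drugs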 (primary screen)
Cell system: HT55 human colorectal cancer cell line
Reagents: siRNA pool against human genes
Challenge: anchor drug BYL719 1 µM, cetuximab 5 µg/ml or trametinib 10 nM, or DMSO vehicle alone
Measured: 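Mean viability over replicates versus non-targeting pool, a robust z-score without drug, and per-drug synergy scores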
Direction: robust z-score, knock-down alone: higher = more cells remaining; low means essential gene; viability vs control pool, no drug: higher = more viable cells
Call rule: 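a gene counts as essential if its knock-down-alone robust z-score falls under -3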
Calls: active = essential (knock-down alone); inactive = no change alone
This is a random part of 794 reagents tested. 20 of them (2.5%) were called active. 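Calls rest only on the knock-down-alone score; drug synergy scores played no part in them.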 No viability above 1 is reported: the scale is capped. Further read-outs or replicates are left out here. Reagent sequences are not shown. The record does not give: the amount of reagent, the time to read-out.

SRMS | robust z-score, knock-down alone = -1.65; viability vs control pool, no drug (fraction) = 0.826; activity call = inactive
OBSCN | robust z-score, knock-down alone = 0.58; viability vs control pool, no drug (fraction) = 1; activity call = inactive
RNASEL | robust z-score, knock-down alone = 0.0384; viability vs control pool, no drug (fraction) = 0.958; activity call = inactive
FGFR3 | robust z-score, knock-down alone = -1.44; viability vs control pool, no drug (fraction) = 0.842; activity call = inactive
GSK3B | robust z-score, knock-down alone = 0.58; viability vs control pool, no drug (fraction) = 1; activity call = inactive
PKN1 | robust z-score, knock-down alone = 0.58; viability vs control pool, no drug (fraction) = 1; activity call = inactive
CSF1R | robust z-score, knock-down alone = 0.58; viability vs control pool, no drug (fraction) = 1; activity call = inactive
ERBB2 | robust z-score, knock-down alone = 0.58; viability vs control pool, no drug (fraction) = 1; activity call = inactive
MKNK1 | robust z-score, knock-down alone = 0.58; viability vs control pool, no drug (fraction) = 1; activity call = inactive
CSNK2A1 | robust z-score, knock-down alone = 0.58; viability vs control pool, no drug (fraction) = 1; activity call = inactive

Only “viability vs control pool, no drug (fraction)”, for 2 of the entries above:
PKN1	1
CSF1R	1

The list goes on:
EPHA5 | robust z-score, knock-down alone = 0.58; viability vs control pool, no drug (fraction) = 1; activity call = inactive
DYRK2 | robust z-score, knock-down alone = 0.461; viability vs control pool, no drug (fraction) = 0.991; activity call = inactive
EIF2AK3 | robust z-score, knock-down alone = 0.366; viability vs control pool, no drug (fraction) = 0.983; activity call = inactive
CSNK1G1 | robust z-score, knock-down alone = -0.55; viability vs control pool, no drug (fraction) = 0.912; activity call = inactive
CSNK1G3 | robust z-score, knock-down alone = 0.58; viability vs control pool, no drug (fraction) = 1; activity call = inactive
FLT3 | robust z-score, knock-down alone = 0.277; viability vs control pool, no drug (fraction) = 0.976; activity call = inactive
MET | robust z-score, knock-down alone = 0.58; viability vs control pool, no drug (fraction) = 1; activity call = inactive
MAPK12 | robust z-score, knock-down alone = 0.58; viability vs control pool, no drug (fraction) = 1; activity call = inactive
POMK | robust z-score, knock-down alone = 0.58; viability vs control pool, no drug (fraction) = 1; activity call = inactive
